Experimental data reported in PubChem BioAssay AID493014 (National Center for Advancing Translational Sciences (NCATS), 2011).
The list shows a part of the results. The main result of the screen is listed elsewhere. These columns were measured beside it and carry no call. Compounds called inactive in the main read-out are mostly missing here. The note in brackets gives the kind of curve behind each potency; many fits are weak.

Test: qHTS Assay to Find Inhibitors of Chronic Active B-Cell Receptor Signaling
Settings: ABC-DLBCL IkBa-CBG/CBR reporter, luminescence ratio (green luciferase fused to IkBa over red control in TMD8 lymphoma cells), 4 h
Procedure, shortened: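 TMD8 ABC-DLBCL cells carrying doxycycline-inducible green luciferase fused to IkappaBalpha plus unfused red luciferase were exposed to compounds (up to 46 uM) for 4 hrs at 37C. Activity came from the overlap-corrected green/red luminescence ratio.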

[1] = measured here: CBR red luminescence, cell number
[2] = measured here: IkBa-CBG green luminescence

With `Cc1nn(CC(=O)NCCc2ccccc2)c(=O)c2nn(-c3ccccc3)c(C)c12` the AC50 [1] was 15.8 µM [rising, single point].
For `COc1ccc(-c2nnc(SCC(=O)NCc3cccs3)n2C)cc1`, the AC50 [1] was 23.1 µM [rising, single point].
With `CCc1nc2ccc(C(=O)N3CCN(c4cc(C)ccc4C)CC3)cc2nc1CC` the AC50 [2] was 14.1 µM [rising, partial curve, poor fit].
For `CC(=O)NCCNC(=O)c1ccc(Sc2ccccc2)c([N+](=O)[O-])c1`, the AC50 [1] was 0.794 µM [rising, full curve, poor fit].
For `O=[N+]([O-])c1ccc2nc(CCCO)[nH]c2c1`, the AC50 [1] was 20 µM [rising, partial curve, poor fit].
In the case of `Cc1nc2c(-c3ccc(F)cc3)c(C)nn2c(N2CCOCC2)c1C`, the AC50 [1] was 12.6 µM [rising, partial curve] and the AC50 [2] was 3.98 µM [falling, partial curve, poor fit].
With `CCOC(=O)CSc1nnc(CSc2nc3ccccc3c(=O)[nH]2)n1-c1ccccc1` the AC50 [1] was 13 µM [falling, partial curve, poor fit].
In the case of `CC1=C(C#N)C(c2cccnc2)C2=C(CC(c3ccc(Cl)cc3)CC2=O)N1` (stereo unspecified), the AC50 [1] was 16.4 µM [falling, single point].
In the case of `NC(=O)N/N=C/c1cc(Br)ccc1OCC(=O)NCc1ccccc1`, the AC50 [2] was 3.66 µM [rising, full curve, poor fit].
In the case of `Cc1onc(-c2ccccc2)c1C(=O)NC(C)C`, the AC50 [1] was 25.9 µM [rising, partial curve, poor fit].
For `Cc1cccc(-n2ncc(Cl)c(Cl)c2=O)c1`, the AC50 [1] was 10 µM [falling, partial curve] and the AC50 [2] was 11.2 µM [rising, partial curve, poor fit].
In the case of `CCc1nc2sc3c(c2c(=O)n1NC(=O)CCl)CCCC3`, the AC50 [1] was 29.1 µM [falling, single point].
For `CCn1cc(C(=O)Nc2ccc3c(c2)OCCO3)c2cc(OC)c(OC)cc2c1=O`, the AC50 [1] was 35.5 µM [falling, single point].
With `CCOC(=O)N1CCC(NC(=O)C2CCN(S(=O)(=O)N3CCCC3)CC2)CC1` the AC50 [1] was 0.562 µM [rising, full curve, poor fit].
For `CCCCc1ccc(-c2csc(/C(C#N)=C\c3ccco3)n2)cc1`, the AC50 [1] was 23.1 µM [rising, single point].
In the case of `C[C@H](CO)NC(=O)[C@@H]1C[C@H]1[C@@H](NP(=O)(c1ccccc1)c1ccccc1)c1ccccc1`, the AC50 [1] was 9.2 µM [rising, partial curve, poor fit].
With `CCCCCCC1CC(=O)NC(=O)N1` (stereo unspecified) the AC50 [1] was 12.6 µM [rising, single point].
For `CCCCCSc1nnc(-c2ccccc2NC(C)=O)c(=O)[nH]1`, the AC50 [1] was 10 µM [falling, partial curve, poor fit].
With `COc1ccc2nc(NC(=O)C3CCN(S(=O)(=O)c4cccc5nsnc45)CC3)sc2c1` the AC50 [1] was 10 µM [falling, partial curve, poor fit].
In the case of `COc1ccc(Cl)cc1NC(=S)NNC(=O)c1cccs1`, the AC50 [1] was 35.5 µM [falling, single point].
With `COc1cc(CN(C2CC2)S(=O)(=O)c2ccccc2Br)cc(OC)c1` the AC50 [1] was 4.11 µM [rising, full curve, poor fit].
In the case of `Cc1ccc(C)c(OCC(=O)Nc2ccc(S(=O)(=O)N3CCN(C)CC3)cc2)c1`, the AC50 [1] was 0.411 µM [rising, full curve, poor fit].
With `Cc1cc(Cl)cc(C)c1OCC(=O)N1CCN(c2ncccn2)CC1` the AC50 [1] was 2.31 µM [rising, partial curve, poor fit].
In the case of `C#CCCCCCCC#CCN(C)C`, the AC50 [1] was 4.61 µM [rising, full curve].
For `O=C(CCC(=O)NNC(=O)c1ccccc1[N+](=O)[O-])NCc1ccccc1`, the AC50 [1] was 4.47 µM [rising, full curve].
In the case of `CCOc1cc(C)nc(N2CCC(C(=O)Nc3ccccc3OCC)CC2)n1`, the AC50 [1] was 3.55 µM [rising, partial curve, poor fit].
For `O=C(N/N=C/c1cccnc1)c1ccc(Cn2cc([N+](=O)[O-])cn2)o1`, the AC50 [1] was 15.8 µM [falling, partial curve, poor fit].
For `O=C(Nc1sc2c(c1C(=O)O)CCCC2)c1cccs1`, the AC50 [1] was 2.51 µM [falling, full curve].
With `CCC1CCCCN1Cc1c(O)ccc2c(=O)c(-c3ccccc3)coc12` (stereo unspecified) the AC50 [1] was 11.2 µM [rising, partial curve, poor fit].
In the case of `COCCNC(=O)Nc1ccc2nc(-c3cccs3)c(-c3cccs3)nc2c1`, the AC50 [1] was 16.4 µM [falling, single point].
In the case of `c1ccc2c(SCc3cn4ccccc4n3)nncc2c1`, the AC50 [1] was 4.47 µM [falling, partial curve, poor fit].
In the case of `CC(OC(=O)CNC(=O)c1ccc(F)cc1)C(=O)Nc1ccc(S(=O)(=O)N2CCOCC2)cc1` (stereo unspecified), the AC50 [1] was 1.16 µM [rising, partial curve, poor fit].
In the case of `COC(=O)Cc1cccc2c(=O)c3ccccc3oc12`, the AC50 [1] was 0.1 µM [rising, full curve, poor fit].
For `COc1ccc(N(C)C(=O)c2ccc3nc(-c4ccccc4)c(-c4ccccc4)nc3c2)cc1`, the AC50 [2] was 11.2 µM [rising, partial curve, poor fit].
For `CN(CC(=O)Nc1ccc(OC(F)(F)F)cc1)C(=O)c1ccc(N2CCCC2=O)cc1`, the AC50 [1] was 1.64 µM [rising, partial curve, poor fit].
For `CC(C)c1ccc(S(=O)(=O)N2CCN(CC(O)CN3CCOCC3)CC2)cc1` (stereo unspecified), the AC50 [1] was 23.1 µM [rising, partial curve, poor fit].
For `CCN(CC)C(=O)[C@H]1C[C@H](CC(=O)NCc2ccco2)C(=O)N2CCc3c([nH]c4cc(-c5ccco5)ccc34)[C@]12C`, the AC50 [1] was 29.1 µM [falling, single point].
For `COc1ccc(OC)c2c1sc(=NC(=O)C(C)(C)C)n2C`, the AC50 [1] was 2.06 µM [rising, partial curve, poor fit].
With `C=CCc1cccc2cc(C(=O)Nc3ccccc3C(=O)O)c(=O)oc12` the AC50 [1] was 10 µM [falling, partial curve, poor fit].
